The target in the assay is GFP-Cw9a(1-52) (S. pombe (natural isolate CBS5557)). Briefly: affinity purification with mass spectrometry; GFP-Cw9a(1-52) purified from S. pombe lysate on GFP-Trap agarose beads, 2 h at 4 °C; co-purified proteins identified by mass spectrometry.

Chains of the proteins cited; added tags and fusions are not shown.
UniProt Q92462: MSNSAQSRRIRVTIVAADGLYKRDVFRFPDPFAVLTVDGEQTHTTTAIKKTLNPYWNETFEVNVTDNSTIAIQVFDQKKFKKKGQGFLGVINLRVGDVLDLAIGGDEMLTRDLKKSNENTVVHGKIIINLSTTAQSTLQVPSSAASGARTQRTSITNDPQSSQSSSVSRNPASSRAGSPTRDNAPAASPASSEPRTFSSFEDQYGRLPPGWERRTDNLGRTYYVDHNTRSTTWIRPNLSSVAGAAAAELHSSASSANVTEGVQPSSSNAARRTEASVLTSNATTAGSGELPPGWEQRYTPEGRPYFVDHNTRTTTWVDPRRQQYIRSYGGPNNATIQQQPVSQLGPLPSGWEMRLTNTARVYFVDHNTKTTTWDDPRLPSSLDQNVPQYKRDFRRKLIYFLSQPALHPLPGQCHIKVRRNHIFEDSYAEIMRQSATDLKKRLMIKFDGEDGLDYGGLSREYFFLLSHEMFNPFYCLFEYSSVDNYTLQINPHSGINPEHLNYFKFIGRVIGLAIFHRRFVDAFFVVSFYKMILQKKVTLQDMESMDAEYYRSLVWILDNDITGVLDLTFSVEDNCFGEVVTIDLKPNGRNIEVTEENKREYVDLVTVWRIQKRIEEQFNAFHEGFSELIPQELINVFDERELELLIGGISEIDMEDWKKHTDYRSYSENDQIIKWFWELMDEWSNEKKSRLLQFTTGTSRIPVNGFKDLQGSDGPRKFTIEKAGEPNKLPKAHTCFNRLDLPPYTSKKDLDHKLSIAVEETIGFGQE

The values that follow come from PMC10721834.

These are yes or no findings as the source states them, for the method shown. In cells and extracts the contact can be indirect. Here binding means that the protein was enriched with, or labelled near, the bait; the list need not be complete.

Turning to “Pub1 (from UniProt Q92462 1-767) (enzyme)”, the binding result is “binds”.
